Read-outs that look alike come from different tables or passages of the source. These are yes or no findings as the source states them, for the method shown. In cells and extracts the contact can be indirect. Some entries that bind do so weakly or less than the wild type. Tags and fused reporters may be left off the sequences shown.

By UniProt entry, the sequences of proteins in these tests, tags left out.
UniProt Q9SP32: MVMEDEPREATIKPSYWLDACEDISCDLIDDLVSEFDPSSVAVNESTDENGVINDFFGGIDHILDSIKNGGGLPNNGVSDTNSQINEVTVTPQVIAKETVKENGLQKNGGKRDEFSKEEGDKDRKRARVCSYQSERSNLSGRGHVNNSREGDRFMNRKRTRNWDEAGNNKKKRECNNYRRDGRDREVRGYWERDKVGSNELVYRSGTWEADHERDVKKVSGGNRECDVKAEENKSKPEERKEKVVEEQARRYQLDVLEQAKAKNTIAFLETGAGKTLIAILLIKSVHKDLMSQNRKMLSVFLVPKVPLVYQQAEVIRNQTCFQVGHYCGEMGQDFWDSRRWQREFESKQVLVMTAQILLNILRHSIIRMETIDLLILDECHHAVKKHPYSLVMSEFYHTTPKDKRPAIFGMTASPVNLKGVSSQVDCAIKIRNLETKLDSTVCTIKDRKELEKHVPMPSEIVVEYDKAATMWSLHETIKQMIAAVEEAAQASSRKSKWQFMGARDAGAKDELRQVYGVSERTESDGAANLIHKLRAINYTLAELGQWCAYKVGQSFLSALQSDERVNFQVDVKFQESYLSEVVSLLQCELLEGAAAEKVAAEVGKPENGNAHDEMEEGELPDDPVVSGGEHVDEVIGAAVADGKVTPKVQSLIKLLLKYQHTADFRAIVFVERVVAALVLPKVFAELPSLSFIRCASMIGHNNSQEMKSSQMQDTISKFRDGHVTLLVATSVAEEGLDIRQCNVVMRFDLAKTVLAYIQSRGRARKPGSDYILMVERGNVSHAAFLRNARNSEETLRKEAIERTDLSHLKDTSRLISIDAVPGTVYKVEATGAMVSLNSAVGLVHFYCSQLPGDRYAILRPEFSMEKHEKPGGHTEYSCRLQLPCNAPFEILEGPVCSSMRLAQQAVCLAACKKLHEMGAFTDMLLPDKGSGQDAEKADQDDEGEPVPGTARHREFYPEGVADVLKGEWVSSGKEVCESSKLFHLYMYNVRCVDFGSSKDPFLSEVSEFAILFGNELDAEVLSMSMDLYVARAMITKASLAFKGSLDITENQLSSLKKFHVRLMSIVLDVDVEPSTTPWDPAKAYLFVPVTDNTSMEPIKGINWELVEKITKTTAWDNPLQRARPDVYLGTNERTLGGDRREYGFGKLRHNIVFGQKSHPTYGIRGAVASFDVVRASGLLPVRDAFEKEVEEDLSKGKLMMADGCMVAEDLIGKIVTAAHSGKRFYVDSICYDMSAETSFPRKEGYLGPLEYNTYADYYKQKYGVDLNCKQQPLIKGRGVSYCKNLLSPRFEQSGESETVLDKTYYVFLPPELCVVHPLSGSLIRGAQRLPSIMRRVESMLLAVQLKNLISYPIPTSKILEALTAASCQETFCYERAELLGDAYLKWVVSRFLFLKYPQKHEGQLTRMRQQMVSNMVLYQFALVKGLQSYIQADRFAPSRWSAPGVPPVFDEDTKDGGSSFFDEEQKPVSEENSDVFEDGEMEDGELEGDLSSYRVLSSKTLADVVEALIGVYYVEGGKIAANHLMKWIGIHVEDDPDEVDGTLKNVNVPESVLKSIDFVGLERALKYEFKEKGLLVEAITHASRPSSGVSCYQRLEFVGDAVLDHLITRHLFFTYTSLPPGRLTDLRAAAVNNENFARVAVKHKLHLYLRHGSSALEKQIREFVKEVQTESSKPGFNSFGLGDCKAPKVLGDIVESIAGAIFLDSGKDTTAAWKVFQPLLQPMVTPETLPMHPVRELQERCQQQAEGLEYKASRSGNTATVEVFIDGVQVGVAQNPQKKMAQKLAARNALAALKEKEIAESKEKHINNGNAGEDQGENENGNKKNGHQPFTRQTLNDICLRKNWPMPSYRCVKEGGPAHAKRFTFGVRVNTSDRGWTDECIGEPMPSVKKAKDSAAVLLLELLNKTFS
UniProt Q9LXW7: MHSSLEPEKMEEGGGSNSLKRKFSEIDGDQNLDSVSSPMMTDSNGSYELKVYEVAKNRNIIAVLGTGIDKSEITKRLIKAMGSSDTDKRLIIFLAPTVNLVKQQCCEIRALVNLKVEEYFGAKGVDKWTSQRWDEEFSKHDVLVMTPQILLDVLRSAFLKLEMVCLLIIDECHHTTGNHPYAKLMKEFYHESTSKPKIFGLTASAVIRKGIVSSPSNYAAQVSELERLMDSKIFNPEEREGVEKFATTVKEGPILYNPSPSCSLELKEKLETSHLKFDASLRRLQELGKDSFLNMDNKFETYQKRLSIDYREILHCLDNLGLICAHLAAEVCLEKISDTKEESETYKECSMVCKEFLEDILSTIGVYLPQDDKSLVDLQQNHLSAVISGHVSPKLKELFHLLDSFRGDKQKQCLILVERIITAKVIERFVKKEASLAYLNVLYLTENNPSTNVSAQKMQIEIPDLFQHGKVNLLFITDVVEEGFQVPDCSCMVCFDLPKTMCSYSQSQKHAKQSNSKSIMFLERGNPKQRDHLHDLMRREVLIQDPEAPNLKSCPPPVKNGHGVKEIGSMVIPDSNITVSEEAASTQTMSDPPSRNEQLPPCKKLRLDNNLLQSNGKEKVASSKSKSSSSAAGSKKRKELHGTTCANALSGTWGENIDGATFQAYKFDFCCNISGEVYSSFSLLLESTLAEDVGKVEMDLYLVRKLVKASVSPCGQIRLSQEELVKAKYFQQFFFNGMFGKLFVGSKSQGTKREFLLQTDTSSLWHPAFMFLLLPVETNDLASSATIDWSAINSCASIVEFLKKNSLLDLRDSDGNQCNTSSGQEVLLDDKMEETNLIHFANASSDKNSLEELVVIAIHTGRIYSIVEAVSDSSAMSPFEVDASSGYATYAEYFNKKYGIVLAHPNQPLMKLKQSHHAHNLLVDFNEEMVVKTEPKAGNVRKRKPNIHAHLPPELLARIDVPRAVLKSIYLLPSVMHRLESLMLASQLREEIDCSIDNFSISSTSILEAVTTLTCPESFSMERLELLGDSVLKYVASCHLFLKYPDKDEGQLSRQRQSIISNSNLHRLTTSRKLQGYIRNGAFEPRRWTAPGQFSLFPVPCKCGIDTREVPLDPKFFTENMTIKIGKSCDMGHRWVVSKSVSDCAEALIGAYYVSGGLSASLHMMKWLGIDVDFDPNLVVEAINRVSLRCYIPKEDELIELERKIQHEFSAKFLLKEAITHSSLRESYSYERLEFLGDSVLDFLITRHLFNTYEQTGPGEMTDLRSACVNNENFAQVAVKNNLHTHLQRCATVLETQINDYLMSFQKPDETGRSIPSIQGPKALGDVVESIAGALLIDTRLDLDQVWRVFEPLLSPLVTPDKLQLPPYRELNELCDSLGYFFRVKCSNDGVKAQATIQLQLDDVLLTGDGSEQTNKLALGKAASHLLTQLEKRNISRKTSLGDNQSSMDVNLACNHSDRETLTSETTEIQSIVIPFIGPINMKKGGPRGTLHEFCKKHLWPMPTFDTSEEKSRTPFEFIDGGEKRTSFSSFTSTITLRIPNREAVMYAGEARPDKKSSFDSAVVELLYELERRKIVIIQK
UniProt P84634: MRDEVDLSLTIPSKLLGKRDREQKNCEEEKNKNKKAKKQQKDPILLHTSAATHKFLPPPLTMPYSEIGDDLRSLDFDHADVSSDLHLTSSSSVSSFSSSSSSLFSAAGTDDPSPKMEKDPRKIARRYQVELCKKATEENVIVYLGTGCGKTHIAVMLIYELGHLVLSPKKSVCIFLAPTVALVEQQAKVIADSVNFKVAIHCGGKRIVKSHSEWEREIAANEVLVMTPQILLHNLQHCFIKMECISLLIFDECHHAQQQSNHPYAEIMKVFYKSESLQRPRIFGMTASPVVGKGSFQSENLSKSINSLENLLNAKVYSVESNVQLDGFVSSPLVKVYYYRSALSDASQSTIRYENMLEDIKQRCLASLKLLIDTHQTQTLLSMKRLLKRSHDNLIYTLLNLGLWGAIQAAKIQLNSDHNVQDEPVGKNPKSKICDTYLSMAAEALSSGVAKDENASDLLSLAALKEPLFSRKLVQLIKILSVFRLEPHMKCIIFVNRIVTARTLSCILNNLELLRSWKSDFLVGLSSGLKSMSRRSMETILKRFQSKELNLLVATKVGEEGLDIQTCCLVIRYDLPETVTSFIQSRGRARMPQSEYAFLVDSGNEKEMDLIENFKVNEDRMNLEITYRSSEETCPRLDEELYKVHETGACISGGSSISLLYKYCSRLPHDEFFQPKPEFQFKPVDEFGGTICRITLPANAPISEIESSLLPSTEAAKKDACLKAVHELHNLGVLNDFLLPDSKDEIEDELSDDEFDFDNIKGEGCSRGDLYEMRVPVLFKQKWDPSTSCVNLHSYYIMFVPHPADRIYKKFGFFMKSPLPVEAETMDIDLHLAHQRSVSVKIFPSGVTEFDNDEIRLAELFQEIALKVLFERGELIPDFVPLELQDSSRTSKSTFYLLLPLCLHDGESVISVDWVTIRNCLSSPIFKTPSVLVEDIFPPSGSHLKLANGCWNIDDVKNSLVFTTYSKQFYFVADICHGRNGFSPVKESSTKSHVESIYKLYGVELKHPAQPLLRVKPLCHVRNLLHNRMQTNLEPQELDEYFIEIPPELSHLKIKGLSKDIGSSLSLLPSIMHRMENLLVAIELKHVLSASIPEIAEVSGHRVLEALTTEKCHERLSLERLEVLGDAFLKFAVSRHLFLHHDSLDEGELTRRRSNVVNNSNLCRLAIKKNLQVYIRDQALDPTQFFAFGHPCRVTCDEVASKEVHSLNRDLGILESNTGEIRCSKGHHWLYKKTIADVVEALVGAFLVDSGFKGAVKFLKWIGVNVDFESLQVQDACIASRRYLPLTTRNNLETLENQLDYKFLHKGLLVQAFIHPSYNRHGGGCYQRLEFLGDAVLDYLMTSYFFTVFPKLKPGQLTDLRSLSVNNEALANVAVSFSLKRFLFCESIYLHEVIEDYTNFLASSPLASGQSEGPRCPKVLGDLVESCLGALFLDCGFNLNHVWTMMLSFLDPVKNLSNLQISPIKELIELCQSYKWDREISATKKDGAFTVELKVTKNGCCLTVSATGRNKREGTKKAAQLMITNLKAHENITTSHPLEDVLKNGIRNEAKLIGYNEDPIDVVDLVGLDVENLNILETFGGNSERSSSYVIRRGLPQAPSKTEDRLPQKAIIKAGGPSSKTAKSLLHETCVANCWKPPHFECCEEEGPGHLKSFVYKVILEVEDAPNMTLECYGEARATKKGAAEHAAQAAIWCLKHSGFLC

From PMC4351826 come the findings set out here.

Test [1] addresses T1, DRB2-FlagHA (Arabidopsis thaliana) (UniProt Q9SKN2).
T1 sequence: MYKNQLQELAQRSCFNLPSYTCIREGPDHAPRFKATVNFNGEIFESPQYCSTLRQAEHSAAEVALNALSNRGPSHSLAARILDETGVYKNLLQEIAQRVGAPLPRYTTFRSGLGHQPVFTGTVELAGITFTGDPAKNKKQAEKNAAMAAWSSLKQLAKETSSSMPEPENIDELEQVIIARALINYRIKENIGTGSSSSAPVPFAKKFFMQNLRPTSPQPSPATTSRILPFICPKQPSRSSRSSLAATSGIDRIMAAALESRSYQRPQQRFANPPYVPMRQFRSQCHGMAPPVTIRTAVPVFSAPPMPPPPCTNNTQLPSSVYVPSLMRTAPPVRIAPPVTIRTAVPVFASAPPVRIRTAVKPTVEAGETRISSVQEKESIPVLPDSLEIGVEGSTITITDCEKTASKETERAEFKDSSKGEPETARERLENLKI
The experiment in a line: co-IP; Flag IP from crude extracts of the DRB2-FlagHA complemented line (or of plants cotransformed with DRB2-FlagHA and DRB4-Cmyc); western blot with Cmyc or custom made antibodies.

For test [2], the target named is T1, DRB2-FlagHA (Arabidopsis thaliana). The description is as above. This is another data set of the same source.
Test [3] addresses T2, HDA19-GFP (Arabidopsis thaliana) (UniProt O22446).
T2 sequence: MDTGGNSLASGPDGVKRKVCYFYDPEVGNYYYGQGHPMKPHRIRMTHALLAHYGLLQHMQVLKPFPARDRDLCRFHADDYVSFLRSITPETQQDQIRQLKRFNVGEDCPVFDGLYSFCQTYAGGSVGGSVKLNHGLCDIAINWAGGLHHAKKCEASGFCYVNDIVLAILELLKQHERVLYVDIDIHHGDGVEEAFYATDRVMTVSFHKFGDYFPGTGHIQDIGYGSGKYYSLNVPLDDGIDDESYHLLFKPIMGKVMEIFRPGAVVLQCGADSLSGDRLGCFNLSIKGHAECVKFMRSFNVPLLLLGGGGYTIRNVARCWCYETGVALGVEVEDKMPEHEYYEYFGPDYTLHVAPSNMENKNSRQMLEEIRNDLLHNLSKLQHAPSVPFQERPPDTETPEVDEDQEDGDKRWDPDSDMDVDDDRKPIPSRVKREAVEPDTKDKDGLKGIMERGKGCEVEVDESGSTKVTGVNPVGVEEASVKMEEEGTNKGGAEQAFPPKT
The test can be described thus: co-IP; F1 plants harbouring DRB2-FlagHA and the second transgene; Cmyc IP (PRMT4B-Cmyc) or GFP IP (HDA19-GFP, MSI4-eGFP, eGFP-MSI4); DRB2-FlagHA revealed with HA antibody.

For test [4], the target named is T3, MSI4-eGFP (Arabidopsis thaliana) (UniProt O22607).
T3 sequence: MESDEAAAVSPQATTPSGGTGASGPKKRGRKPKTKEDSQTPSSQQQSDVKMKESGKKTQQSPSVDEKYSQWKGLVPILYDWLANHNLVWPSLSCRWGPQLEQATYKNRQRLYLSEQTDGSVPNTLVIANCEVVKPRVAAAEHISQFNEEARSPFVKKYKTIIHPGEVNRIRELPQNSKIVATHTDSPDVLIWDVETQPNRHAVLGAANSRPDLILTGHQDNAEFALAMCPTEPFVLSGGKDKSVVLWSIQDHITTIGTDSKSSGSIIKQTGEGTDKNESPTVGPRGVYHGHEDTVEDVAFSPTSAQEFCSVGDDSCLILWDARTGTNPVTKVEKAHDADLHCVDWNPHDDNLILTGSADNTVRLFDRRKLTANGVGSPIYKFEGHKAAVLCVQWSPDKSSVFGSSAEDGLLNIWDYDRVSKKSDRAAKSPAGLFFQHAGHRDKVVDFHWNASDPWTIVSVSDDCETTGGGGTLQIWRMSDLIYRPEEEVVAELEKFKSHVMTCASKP
The description is as above.

Test [5] addresses T4, PRMT4B-Cmyc (Arabidopsis thaliana) (UniProt Q84W92).
T4 sequence: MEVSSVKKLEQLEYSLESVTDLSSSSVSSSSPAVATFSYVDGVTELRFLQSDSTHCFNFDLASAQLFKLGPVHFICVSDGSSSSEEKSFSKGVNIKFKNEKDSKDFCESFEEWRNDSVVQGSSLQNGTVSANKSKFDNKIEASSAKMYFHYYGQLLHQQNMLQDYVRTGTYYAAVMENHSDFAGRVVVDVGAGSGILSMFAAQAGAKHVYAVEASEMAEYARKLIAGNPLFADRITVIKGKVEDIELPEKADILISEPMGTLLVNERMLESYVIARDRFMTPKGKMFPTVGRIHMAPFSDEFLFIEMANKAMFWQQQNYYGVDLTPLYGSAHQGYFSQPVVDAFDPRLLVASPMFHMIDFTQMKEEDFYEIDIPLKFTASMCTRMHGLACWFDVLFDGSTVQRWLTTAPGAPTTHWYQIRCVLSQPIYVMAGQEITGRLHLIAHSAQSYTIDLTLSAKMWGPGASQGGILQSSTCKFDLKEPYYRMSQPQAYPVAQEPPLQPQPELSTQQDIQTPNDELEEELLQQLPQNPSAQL
Described as above.

Test [6] concerns the target T5, eGFP-MSI4 (Arabidopsis thaliana) (UniProt O22607).
T5 sequence: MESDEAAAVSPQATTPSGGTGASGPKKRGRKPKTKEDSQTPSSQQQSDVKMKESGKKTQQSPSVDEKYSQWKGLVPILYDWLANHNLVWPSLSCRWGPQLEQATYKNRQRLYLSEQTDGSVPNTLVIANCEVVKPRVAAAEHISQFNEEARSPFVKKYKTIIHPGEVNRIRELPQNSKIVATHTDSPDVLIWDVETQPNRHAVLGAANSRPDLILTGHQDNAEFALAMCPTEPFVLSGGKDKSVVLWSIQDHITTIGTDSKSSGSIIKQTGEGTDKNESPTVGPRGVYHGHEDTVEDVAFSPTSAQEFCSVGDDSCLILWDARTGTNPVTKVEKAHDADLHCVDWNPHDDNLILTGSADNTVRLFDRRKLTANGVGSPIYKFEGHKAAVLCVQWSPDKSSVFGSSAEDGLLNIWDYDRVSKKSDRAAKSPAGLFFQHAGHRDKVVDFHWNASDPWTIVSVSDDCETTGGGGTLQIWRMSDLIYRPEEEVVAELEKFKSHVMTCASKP
The description is as above.

Test [7] has as its target T6, MSI4-eGFP (transiently expressed in Nicotiana benthamiana) (Arabidopsis thaliana) (UniProt O22607).
T6 sequence: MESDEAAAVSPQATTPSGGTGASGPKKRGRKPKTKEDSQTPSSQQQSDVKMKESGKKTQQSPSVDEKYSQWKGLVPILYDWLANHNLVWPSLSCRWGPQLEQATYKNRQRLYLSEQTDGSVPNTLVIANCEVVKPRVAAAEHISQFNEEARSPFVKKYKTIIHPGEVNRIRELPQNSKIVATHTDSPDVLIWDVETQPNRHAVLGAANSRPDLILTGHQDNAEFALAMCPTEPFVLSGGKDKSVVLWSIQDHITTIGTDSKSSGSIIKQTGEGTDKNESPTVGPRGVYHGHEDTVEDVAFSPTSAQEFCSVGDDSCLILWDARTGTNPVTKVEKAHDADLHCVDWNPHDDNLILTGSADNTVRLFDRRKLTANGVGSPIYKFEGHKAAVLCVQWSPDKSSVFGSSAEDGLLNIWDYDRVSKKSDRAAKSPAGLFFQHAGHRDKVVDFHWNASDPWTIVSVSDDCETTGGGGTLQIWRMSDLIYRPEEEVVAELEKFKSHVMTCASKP
The experiment in a line: co-IP; DRB2-FlagHA and MSI4-eGFP transiently co-expressed in N. benthamiana leaves; GFP IP, western blot with HA antibody. (In general: A western blot detects proteins with antibodies after separation by electrophoresis.)

Take “DCL1 (from UniProt Q9SP32 1-1909) (enzyme)”: the binding result in test [1] is “no binding”.
Still for that read-out and setting: to “DCL3 (from UniProt Q9LXW7 1-1580) (enzyme)” belongs “no binding”; to “DCL4 (from UniProt P84634 1-1702) (enzyme)”, “no binding”.

B1: RDR2 (enzyme, UniProt O82504 1-1133)
chain: MVSETTTNRSTVKISNVPQTIVADELLRFLELHLGEDTVFALEIPTTRDNWKPRDFARVQFTTLEVKSRAQLLSSQSKLLFKTHNLRLSEAYDDIIPRPVDPRKRLDDIVLTVGFPESDEKRFCALEKWDGVRCWILTEKRRVEFWVWESGDCYKIEVRFEDIIETLSCCVNGDASEIDAFLLKLKYGPKVFKRVTVHIATKFKSDRYRFCKEDFDFMWIRTTDFSGSKSIGTSTCFCLEVHNGSTMLDIFSGLPYYREDTLSLTYVDGKTFASAAQIVPLLNAAILGLEFPYEILFQLNALVHAQKISLFAASDMELIKILRGMSLETALVILKKLHQQSSICYDPVFFVKTQMQSVVKKMKHSPASAYKRLTEQNIMSCQRAYVTPSKIYLLGPELETANYVVKNFAEHVSDFMRVTFVEEDWSKLPANALSVNSKEGYFVKPSRTNIYNRVLSILGEGITVGPKRFEFLAFSASQLRGNSVWMFASNEKVKAEDIREWMGCFRKIRSISKCAARMGQLFSASRQTLIVRAQDVEQIPDIEVTTDGADYCFSDGIGKISLAFAKQVAQKCGLSHVPSAFQIRYGGYKGVIAVDRSSFRKLSLRDSMLKFDSNNRMLNVTRWTESMPCFLNREIICLLSTLGIEDAMFEAMQAVHLSMLGNMLEDRDAALNVLQKLSGENSKNLLVKMLLQGYAPSSEPYLSMMLRVHHESQLSELKSRCRILVPKGRILIGCMDEMGILEYGQVYVRVTLTKAELKSRDQSYFRKIDEETSVVIGKVVVTKNPCLHPGDIRVLDAIYEVHFEEKGYLDCIIFPQKGERPHPNECSGGDLDGDQFFVSWDEKIIPSEMDPPMDYAGSRPRLMDHDVTLEEIHKFFVDYMISDTLGVISTAHLVHADRDPEKARSQKCLELANLHSRAVDFAKTGAPAEMPYALKPREFPDFLERFEKPTYISESVFGKLYRAVKSSLAQRKPEAESEDTVAYDVTLEEAGFESFIETAKAHRDMYGEKLTSLMIYYGAANEEEILTGILKTKEMYLARDNRRYGDMKDRITLSVKDLHKEAMGWFEKSCEDEQQKKKLASAWYYVTYNPNHRDEKLTFLSFPWIVGDVLLDIKAENAQRQSVEEKTSGLVSI
On to B1, for which, in test [2], the binding result is given as “no binding”.

B2: DRB2-FlagHA (protein, UniProt Q9SKN2 1-434)
chain: MYKNQLQELAQRSCFNLPSYTCIREGPDHAPRFKATVNFNGEIFESPQYCSTLRQAEHSAAEVALNALSNRGPSHSLAARILDETGVYKNLLQEIAQRVGAPLPRYTTFRSGLGHQPVFTGTVELAGITFTGDPAKNKKQAEKNAAMAAWSSLKQLAKETSSSMPEPENIDELEQVIIARALINYRIKENIGTGSSSSAPVPFAKKFFMQNLRPTSPQPSPATTSRILPFICPKQPSRSSRSSLAATSGIDRIMAAALESRSYQRPQQRFANPPYVPMRQFRSQCHGMAPPVTIRTAVPVFSAPPMPPPPCTNNTQLPSSVYVPSLMRTAPPVRIAPPVTIRTAVPVFASAPPVRIRTAVKPTVEAGETRISSVQEKESIPVLPDSLEIGVEGSTITITDCEKTASKETERAEFKDSSKGEPETARERLENLKI
Turning to B2, the binding entry in test [3], in test [4], in test [5] and in test [6] was “binds” each time.

B3: DRB2-FlagHA (transiently expressed in Nicotiana benthamiana) (protein, UniProt Q9SKN2 1-434)
chain: MYKNQLQELAQRSCFNLPSYTCIREGPDHAPRFKATVNFNGEIFESPQYCSTLRQAEHSAAEVALNALSNRGPSHSLAARILDETGVYKNLLQEIAQRVGAPLPRYTTFRSGLGHQPVFTGTVELAGITFTGDPAKNKKQAEKNAAMAAWSSLKQLAKETSSSMPEPENIDELEQVIIARALINYRIKENIGTGSSSSAPVPFAKKFFMQNLRPTSPQPSPATTSRILPFICPKQPSRSSRSSLAATSGIDRIMAAALESRSYQRPQQRFANPPYVPMRQFRSQCHGMAPPVTIRTAVPVFSAPPMPPPPCTNNTQLPSSVYVPSLMRTAPPVRIAPPVTIRTAVPVFASAPPVRIRTAVKPTVEAGETRISSVQEKESIPVLPDSLEIGVEGSTITITDCEKTASKETERAEFKDSSKGEPETARERLENLKI
Turning to B3, in test [7], the binding entry is recorded as “binds”.

B4: DRB5 (protein, UniProt Q8GY79 1-393)
chain: MYKNQLQELAQRSCFNLPSYTCIREGPDHAPRFKASVNFNGEIFESPTYCSTLRQAEHAAAEVSLNVLSSRVPSKSLTAKILDETGIYKNLLQETAHRAGLDLPMYTSVRSGSCHFPGFSCTVELAGMTFTGESAKTKKQAEKNAAIAAWSSLKKMSSLDSQDEEKEQEAVARVLSRFKPKEVRRRETTNQWRRRTSQQDSNKDLLIERLRWINLLTNQASSSSSTSTPNQHKNSSFISLIPPPPPPKSSKILPFIQQYKDRSSQEAKTETATEMINSKAKVNETSTRLSKQMPFSDMNRYNFVGGCSVNPYSLAPAVQMRSVIPVFAAPPPKPNPNLNPSSLSSSVNEFTSSNNSCSVLNTPGLGGQEKKNLTREMIKLGSESRILDQTHDS
For the molecule B4, the binding result in test [2] is reported as “no binding”.

B5: DRB1 (protein, UniProt O04492 1-419)
chain: MTSTDVSSGVSNCYVFKSRLQEYAQKYKLPTPVYEIVKEGPSHKSLFQSTVILDGVRYNSLPGFFNRKAAEQSAAEVALRELAKSSELSQCVSQPVHETGLCKNLLQEYAQKMNYAIPLYQCQKVETLGRVTQFTCTVEIGGIKYTGAATRTKKDAEISAGRTALLAIQSDTKNNLANYNTQLTVLPCEKKTIQAAIPLKETVKTLKARKAQFKKKAQKGKRTVAKNPEDIIIPPQPTDHCQNDQSEKIETTPNLEPSSCMNGLKEAAFGSVETEKIETTPNLEPPSCMNGLKEAAFGSVETEKIETTPNLEPPSCMNGLKEAAFGSVETEKIETTPNLEPSSCMNGLKEAAFGSVETEKIETTPNLEPPSCMNGLKEAAFGSVETEKIETTPNLESSSCMSGLKEAAFGSVETEASHA
Regarding B5, in test [2], the binding entry was “no binding”.
